Measurements taken from the supplement of paper PMC10849652.
This is one part of the list.

Sequences of proteins named here, by UniProt entry; tags and fusion partners are left off. A change or cut given only in a name is not applied to a line headed by its entry.
UniProt Q96HR9: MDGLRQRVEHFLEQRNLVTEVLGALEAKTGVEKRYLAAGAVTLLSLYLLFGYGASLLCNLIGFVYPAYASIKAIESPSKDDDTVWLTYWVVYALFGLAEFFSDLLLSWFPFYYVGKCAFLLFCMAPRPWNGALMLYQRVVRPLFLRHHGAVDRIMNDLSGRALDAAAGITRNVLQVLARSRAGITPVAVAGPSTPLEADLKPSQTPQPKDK
UniProt Q96I51, whole entry, looked up: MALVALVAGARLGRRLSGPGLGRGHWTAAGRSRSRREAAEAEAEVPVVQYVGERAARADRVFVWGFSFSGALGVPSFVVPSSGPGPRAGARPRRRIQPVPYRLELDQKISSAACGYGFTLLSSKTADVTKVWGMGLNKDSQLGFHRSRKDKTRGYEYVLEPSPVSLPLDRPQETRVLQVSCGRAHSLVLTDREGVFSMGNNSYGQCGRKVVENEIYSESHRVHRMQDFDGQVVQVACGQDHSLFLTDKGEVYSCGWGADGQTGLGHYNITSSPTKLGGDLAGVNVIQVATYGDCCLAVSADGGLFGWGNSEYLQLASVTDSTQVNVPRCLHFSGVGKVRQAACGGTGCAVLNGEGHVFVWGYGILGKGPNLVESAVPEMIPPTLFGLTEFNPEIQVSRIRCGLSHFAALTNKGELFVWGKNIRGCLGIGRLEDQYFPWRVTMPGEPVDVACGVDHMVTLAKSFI
UniProt Q8IZV5: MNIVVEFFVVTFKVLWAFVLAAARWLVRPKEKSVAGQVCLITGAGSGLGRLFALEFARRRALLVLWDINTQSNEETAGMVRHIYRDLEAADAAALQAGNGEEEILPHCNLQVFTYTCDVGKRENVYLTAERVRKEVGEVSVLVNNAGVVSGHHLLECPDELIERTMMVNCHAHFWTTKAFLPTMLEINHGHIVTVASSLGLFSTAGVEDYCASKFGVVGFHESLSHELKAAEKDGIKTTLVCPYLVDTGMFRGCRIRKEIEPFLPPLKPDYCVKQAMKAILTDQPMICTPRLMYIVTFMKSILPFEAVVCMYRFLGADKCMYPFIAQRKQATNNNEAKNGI
UniProt P53805: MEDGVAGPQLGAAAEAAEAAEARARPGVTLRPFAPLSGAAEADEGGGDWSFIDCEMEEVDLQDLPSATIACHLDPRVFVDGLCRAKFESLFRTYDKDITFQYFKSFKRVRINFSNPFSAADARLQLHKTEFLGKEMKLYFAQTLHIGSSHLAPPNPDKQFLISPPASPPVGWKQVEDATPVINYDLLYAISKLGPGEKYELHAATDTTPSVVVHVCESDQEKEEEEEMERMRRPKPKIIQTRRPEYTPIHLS
UniProt Q5T160: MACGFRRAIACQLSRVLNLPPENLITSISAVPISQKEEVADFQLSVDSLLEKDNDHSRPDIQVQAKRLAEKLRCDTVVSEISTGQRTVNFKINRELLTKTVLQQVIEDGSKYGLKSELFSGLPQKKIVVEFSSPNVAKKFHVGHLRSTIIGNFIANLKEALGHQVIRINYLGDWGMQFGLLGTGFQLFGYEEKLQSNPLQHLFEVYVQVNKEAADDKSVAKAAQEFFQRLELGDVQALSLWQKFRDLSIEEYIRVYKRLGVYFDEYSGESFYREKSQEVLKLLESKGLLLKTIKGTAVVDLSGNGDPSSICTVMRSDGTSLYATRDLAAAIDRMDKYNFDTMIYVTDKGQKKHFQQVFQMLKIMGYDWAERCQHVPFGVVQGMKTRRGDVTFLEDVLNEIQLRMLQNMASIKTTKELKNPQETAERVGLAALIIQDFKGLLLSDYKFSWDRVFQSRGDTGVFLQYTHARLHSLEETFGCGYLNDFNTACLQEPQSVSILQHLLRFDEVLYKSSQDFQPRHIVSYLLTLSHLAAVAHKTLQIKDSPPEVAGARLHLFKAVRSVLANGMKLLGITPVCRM
UniProt O43665: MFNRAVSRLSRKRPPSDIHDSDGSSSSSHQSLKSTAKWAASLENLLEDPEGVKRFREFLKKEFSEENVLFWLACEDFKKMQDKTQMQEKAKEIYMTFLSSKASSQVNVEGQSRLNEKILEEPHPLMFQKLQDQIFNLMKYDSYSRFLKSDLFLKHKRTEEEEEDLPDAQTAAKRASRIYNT
UniProt P48382: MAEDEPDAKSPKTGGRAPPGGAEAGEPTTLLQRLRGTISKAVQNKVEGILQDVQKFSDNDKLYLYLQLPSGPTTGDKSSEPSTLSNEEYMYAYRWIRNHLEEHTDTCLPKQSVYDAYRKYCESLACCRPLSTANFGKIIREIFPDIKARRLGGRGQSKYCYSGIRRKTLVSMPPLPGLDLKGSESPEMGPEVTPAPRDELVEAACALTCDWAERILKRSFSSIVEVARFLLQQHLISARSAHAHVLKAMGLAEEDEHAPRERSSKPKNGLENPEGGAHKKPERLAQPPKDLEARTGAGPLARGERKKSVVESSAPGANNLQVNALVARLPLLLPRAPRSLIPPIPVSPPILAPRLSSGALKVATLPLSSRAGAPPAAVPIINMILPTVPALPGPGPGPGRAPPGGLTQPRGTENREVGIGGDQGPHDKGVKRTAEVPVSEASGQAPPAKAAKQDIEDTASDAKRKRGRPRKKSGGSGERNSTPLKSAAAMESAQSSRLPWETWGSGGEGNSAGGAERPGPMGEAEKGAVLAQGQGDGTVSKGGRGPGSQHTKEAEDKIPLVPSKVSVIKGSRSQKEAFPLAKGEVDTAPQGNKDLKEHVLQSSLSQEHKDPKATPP
UniProt P28749: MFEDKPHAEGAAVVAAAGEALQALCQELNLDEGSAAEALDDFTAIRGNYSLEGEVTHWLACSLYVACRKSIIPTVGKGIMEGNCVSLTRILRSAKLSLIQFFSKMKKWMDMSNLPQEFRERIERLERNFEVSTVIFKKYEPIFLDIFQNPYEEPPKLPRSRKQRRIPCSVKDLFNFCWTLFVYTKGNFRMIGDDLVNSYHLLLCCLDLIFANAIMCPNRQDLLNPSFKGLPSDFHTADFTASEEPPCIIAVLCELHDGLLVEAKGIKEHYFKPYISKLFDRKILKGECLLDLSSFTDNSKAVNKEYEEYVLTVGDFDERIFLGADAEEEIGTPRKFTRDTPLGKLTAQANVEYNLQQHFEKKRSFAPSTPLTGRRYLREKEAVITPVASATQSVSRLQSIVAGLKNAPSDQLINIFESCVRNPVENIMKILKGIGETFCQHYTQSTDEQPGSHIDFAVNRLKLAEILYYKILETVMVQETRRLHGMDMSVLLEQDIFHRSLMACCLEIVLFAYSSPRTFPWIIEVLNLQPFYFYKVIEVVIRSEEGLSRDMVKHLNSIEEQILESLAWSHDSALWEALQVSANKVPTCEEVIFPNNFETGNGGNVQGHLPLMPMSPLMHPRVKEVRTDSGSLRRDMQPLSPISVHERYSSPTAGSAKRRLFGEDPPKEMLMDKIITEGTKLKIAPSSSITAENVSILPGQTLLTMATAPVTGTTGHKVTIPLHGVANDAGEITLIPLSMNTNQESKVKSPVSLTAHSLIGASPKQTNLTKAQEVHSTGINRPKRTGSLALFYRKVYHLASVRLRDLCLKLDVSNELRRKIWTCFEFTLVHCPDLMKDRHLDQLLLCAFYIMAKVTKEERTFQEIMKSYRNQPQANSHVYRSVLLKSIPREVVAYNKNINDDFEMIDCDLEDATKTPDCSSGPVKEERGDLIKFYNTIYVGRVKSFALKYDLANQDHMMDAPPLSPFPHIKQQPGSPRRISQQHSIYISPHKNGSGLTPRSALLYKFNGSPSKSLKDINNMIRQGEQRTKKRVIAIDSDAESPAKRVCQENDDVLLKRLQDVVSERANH
UniProt Q09028, whole entry, looked up: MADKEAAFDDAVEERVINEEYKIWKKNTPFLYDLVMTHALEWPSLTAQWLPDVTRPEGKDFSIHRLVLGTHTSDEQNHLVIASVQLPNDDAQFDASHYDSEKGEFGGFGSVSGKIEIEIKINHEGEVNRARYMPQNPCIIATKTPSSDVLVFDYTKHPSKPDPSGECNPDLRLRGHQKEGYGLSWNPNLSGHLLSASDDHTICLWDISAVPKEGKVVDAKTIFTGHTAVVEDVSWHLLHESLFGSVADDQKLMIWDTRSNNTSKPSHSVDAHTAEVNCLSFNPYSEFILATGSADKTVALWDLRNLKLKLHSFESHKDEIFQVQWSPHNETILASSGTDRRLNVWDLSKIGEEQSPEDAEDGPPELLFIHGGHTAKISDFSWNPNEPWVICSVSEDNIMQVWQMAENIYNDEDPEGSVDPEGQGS
UniProt P22670: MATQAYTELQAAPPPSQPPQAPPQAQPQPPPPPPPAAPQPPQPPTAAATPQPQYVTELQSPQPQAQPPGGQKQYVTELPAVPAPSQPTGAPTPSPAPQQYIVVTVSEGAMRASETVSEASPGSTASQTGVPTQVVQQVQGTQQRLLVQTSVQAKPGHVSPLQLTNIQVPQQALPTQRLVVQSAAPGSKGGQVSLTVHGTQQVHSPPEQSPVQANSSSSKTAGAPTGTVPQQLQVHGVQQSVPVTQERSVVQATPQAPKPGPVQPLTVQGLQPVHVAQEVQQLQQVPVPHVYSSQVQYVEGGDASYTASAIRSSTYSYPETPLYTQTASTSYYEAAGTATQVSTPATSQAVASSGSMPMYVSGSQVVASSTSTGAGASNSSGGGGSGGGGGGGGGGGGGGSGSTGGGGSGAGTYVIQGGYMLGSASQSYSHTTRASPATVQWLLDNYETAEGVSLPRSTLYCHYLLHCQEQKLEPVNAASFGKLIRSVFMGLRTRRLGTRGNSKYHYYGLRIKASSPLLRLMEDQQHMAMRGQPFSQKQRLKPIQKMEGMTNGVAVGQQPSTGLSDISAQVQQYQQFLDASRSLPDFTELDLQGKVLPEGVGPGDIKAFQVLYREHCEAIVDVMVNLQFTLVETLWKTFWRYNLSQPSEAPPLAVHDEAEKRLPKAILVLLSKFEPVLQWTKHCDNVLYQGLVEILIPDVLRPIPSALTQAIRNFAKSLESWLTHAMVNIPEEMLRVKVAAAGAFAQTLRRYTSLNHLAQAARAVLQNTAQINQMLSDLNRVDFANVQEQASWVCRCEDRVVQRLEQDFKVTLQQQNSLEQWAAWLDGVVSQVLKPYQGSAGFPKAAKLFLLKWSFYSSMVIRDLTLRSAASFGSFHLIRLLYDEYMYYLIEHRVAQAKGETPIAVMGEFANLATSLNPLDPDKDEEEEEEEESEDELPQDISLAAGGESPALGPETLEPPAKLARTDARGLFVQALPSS
UniProt Q6JBY9, whole entry, looked up: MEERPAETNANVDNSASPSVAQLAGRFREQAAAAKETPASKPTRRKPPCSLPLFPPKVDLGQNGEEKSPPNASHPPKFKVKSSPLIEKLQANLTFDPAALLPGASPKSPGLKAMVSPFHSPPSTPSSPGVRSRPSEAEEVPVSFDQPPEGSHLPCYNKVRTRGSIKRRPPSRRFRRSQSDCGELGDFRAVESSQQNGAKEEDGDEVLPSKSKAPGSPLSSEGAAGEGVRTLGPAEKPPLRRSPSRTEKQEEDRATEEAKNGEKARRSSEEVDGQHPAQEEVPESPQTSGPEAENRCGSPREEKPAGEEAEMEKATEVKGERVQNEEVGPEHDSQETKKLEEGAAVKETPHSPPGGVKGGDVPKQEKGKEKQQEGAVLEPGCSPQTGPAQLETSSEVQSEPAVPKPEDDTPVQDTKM
UniProt Q14498: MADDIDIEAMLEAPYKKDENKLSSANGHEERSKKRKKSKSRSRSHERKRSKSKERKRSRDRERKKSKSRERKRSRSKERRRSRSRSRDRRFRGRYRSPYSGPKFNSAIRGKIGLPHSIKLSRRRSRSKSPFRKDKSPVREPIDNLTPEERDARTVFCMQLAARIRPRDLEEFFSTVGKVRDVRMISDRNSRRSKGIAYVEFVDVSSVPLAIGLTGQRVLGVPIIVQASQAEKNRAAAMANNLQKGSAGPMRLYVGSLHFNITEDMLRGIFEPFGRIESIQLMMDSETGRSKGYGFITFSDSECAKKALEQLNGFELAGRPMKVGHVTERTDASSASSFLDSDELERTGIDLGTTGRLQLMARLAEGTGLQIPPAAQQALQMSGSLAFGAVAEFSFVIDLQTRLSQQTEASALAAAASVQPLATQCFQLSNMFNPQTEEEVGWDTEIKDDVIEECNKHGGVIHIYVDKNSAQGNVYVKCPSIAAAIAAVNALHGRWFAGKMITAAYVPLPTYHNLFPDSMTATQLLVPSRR
UniProt P51606: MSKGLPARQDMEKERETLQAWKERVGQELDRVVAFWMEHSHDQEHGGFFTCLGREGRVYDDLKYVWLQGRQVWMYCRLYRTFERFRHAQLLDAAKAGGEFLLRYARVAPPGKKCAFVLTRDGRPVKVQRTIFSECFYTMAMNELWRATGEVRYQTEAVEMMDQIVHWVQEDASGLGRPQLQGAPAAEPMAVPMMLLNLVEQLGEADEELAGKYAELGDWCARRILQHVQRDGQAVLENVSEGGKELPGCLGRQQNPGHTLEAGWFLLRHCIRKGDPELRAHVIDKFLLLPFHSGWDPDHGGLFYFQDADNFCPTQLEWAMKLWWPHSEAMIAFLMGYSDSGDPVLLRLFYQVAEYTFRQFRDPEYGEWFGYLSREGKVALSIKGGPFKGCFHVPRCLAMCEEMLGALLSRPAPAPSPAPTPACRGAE

compound: COc1cc2nc(-c3cc(F)ccc3O)nc(N[C@@H]3CNC[C@H]3C(C)(C)O)c2cc1OC; assay: log2 fold change, soluble protein after heating vs DMSO (PISA); higher = thermal stabilisation; K562 lysate, 10 uM; active = over 0.2 and 3.5 SD of the protein, either way, in both replicates (recomputed)
Method in brief: (§1)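 Pellets of K562 cells were dounce-homogenised in PBS pH 7.4 with 1 mM MgCl2, and the crude extract was held at 1 mg/mL protein for a 30 min treatment with 10 μM compound. Aliquots were heated for 3 min over 48°C-58°C and pooled before NP-40 was added to 0.5% at 4°C. The supernatant from 21,000xg for 90 min was quantified by TMTpro 16plex LC-MS/MS with channel sums equalised. Values are reported from duplicates as log-two fold change in thermal stability relative to solvent controls.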

log2 fold change, inactive:
REEP6 (UniProt Q96HR9) -0.036
RCC1L (UniProt Q96I51) -0.02
RDH10 (UniProt Q8IZV5) 0.007
RERE (UniProt Q9P2R6) 0.018
RCAN1 (UniProt P53805) 0.019
RARS2 (UniProt Q5T160) 0.012
RGS10 (UniProt O43665) -0.018
RFX5 (UniProt P48382) -0.05

compound: COc1cc2ncnc(Nc3ccc(F)c(Cl)c3)c2cc1OCCCN1CCOCC1 [gefitinib]; assay: as above
Method in brief: as §1

log2 fold change, inactive:
RBL1 (UniProt P28749) -0.159
RBBP4 (UniProt Q09028) -0.084
RCOR1 (UniProt Q9UKL0) -0.011
RBM33 (UniProt Q96EV2) 0.012
RFX1 (UniProt P22670) -0.011
RBM28 (UniProt Q9NW13) -0.003
RAVER1 (UniProt E9PAU2) 0.056
RCSD1 (UniProt Q6JBY9) -0.01
RBM39 (UniProt Q14498) 0.003
RFT1 (UniProt Q96AA3) 0.076
RENBP (UniProt P51606) 0.013
RECQL5 (UniProt O94762) 0.03
RELN (UniProt P78509) 0.089
RFXAP (UniProt O00287) 0.061
RASA3 (UniProt Q14644) -0.043
REPS1 (UniProt Q96D71) 0.02

Quoted from the listing (2 entries):
log2 fold change, inactive:
RELN (UniProt P78509) 0.089
RFXAP (UniProt O00287) 0.061
